Experimental data from PubChem BioAssay AID2685 (National Center for Advancing Translational Sciences (NCATS), 2010).
The other results are listed elsewhere or left out. Shown are side measurements of this screen, not its main read-out; they come without a call. The list favours compounds with an active or inconclusive main result. Potencies come from curve fits of mixed quality, noted in brackets.

Test: qHTS Assay for Lipid Storage Modulators in Drosophila S3 Cells;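 on cell number change: cells counted by Cell Tracker Red CMTPX staining in the red channel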
Conditions: BODIPY lipid droplet fluorescence, 18-24 h; for cell number change: measured here: cell count max response, cells fed with added oleic acid
In short: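 Drosophila S3 cells loaded with oleic acid (400 uM, as added) and compounds at several concentrations; lipid droplets imaged by 488-nm laser-scanning cytometry, 500–530 nm intensity and object ratio to cell channel. Percent activity normalized to 20 uM Triacsin C.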

[1] = measured here: cell number channel AC50, cells fed with added oleic acid
[2] = measured here: lipid fluorescence (Fed channel) AC50, cells fed with added oleic acid

SMILES	cell number change [%]	AC50 [1]	AC50 [2]
CN(C)C(=O)N1CCNCC1	14.7	0.092 µM [rising, full curve, poor fit]	–
Cc1cccc(C(=O)OCC(=O)NC(C)CCc2ccccc2)c1 (configuration not stated)	14	–	–
COCCNC(=O)C1CC(c2ccccc2C(F)(F)F)=NO1 (configuration not stated)	24.3	0.0651 µM [rising, full curve, poor fit]	0.82 µM [rising, single point]
O=C(Nc1cccc(F)c1)NC1(C(=O)N2CCC(O)CC2)CCCCC1	4.84	–	29.1 µM [rising, single point]
O=C(Nc1cccc(F)c1)c1cccnc1NCCc1ccccc1	-34.6	20.6 µM [falling, single point]	23.1 µM [falling, single point]
O=C(c1cccc(NS(=O)(=O)c2ccc(F)c(F)c2)c1)N1CCN(Cc2ccccc2)CC1	20.9	–	–
COc1ccc(OC)c(NC(=O)c2ccc3c(c2)CCN3S(C)(=O)=O)c1	-7.61	–	4.61 µM [rising, full curve]
COc1ccccc1OCC(=O)NCCNC(=O)COc1ccccc1OC	-1.04	–	8.2 µM [rising, partial curve, poor fit]
C#Cc1cccc(NC(=O)c2ccc3c(c2)C(=O)N(Cc2cccnc2)C3=O)c1	-27.3	–	–
CCOC(=O)c1ccccc1-c1csc(NS(=O)(=O)c2ccc(Cl)cc2)n1	-17.7	1.64 µM [falling, partial curve, poor fit]	0.58 µM [falling, partial curve, poor fit]
O=C(CSc1nnc(NC(=O)c2ccccc2)s1)NCC1CCCO1 (configuration not stated)	-32.7	32.6 µM [falling, single point]	29.1 µM [rising, single point]
CCc1c(C)nc2[nH]nc(NC(=O)C(F)(F)F)n2c1=O	2.39	–	–
O=C(CC(C(=O)N1CCc2ccccc21)n1ccnc1)NCc1cccnc1 (configuration not stated)	15.8	–	3.26 µM [rising, partial curve]
COc1ccc(-n2nc(C(=O)NCc3ccco3)c3c4ccccc4n(C)c3c2=O)cc1	24.1	2.31 µM [rising, full curve, poor fit]	–
O=C(C1CC1)N1CCN(c2ccnc3cc(Cl)ccc23)CC1	2.6	–	0.291 µM [rising, partial curve, poor fit]
COc1ccc(COCC(O)CN2CCC(C(N)=O)CC2)cc1OC (configuration not stated)	8.61	–	0.651 µM [falling, full curve]
COc1ccc([N+](=O)[O-])cc1NC(=O)c1ccccc1SC	26.4	–	–
CCOC(=O)c1ccc(NC(=O)COc2cc(=O)n(CC)c3ccccc23)cc1	11	–	0.164 µM [rising, full curve, poor fit]
COc1ccc(NC(=O)CSc2ccc3ccccc3c2)cc1S(=O)(=O)N1CCCCC1	18.9	–	5.8 µM [rising, full curve]
c1ccc2[nH]c(NCCCN3CCOCC3)nc2c1	-2.12	0.58 µM [falling, partial curve]	0.326 µM [falling, partial curve]

SMILES	cell number change [%]	AC50 [1]	AC50 [2]
CC(=O)Nc1nnc(CSCc2ccccc2F)s1	2.12	–	0.517 µM [rising, full curve, poor fit]
Cc1ccc2nc(N3CCN(C(=O)c4ccco4)CC3)c3nncn3c2c1	-18.6	–	2.06 µM [falling, partial curve]
COCCN(C(=O)Cc1cccs1)C(C(=O)NCc1ccc(OC)cc1)c1ccc(C)cc1 (configuration not stated)	-38.6	29.1 µM [falling, single point]	–
O=C(OCC(=O)N1CCN(c2ccccc2)CC1)c1cc(Br)ccc1Cl	11.3	–	0.0461 µM [rising, full curve, poor fit]
CC(CC(=O)Nc1cc(C(F)(F)F)ccc1Cl)c1ccccc1 (configuration not stated)	-31.4	0.651 µM [falling, full curve, poor fit]	1.64 µM [falling, partial curve]
COc1cc(N2C(=O)CC3(CCCC3)CC2=O)cc(OC)c1OC	-3.8	–	0.184 µM [falling, full curve, poor fit]
CC(C)c1ccccc1NC(=S)NCc1ccncc1	-7.43	–	–
CCN(C(=O)COC(=O)COc1ccc(Cl)c(C)c1)C1CCS(=O)(=O)C1 (configuration not stated)	-56.9	25.9 µM [falling, single point]	20.6 µM [falling, single point]
O=C(COc1ccc(F)cc1)N(CC1=CCS(=O)(=O)C1)c1ccccc1	13	–	4.61 µM [rising, full curve]
Cc1ccc(CSc2nnc(-c3cccc(S(=O)(=O)N4CCOCC4)c3)n2C2CCCC2)cc1	0.746	–	4.61 µM [rising, single point]
O=C(C1CCN(C2CCN(Cc3ccc4c(c3)CCO4)CC2)CC1)N1CCOCC1	11.8	–	29.1 µM [rising, single point]
CC(C)(C)c1ccc(C(=O)N/N=C/c2ccccn2)cc1	-27.9	–	29.1 µM [falling, single point]
COc1ccc(CCNC(=O)CSc2nnc(CNc3ccc(Cl)cc3)o2)cc1OC	-21.3	–	13 µM [falling, partial curve]
Cc1cc(C(=O)N2CCC(C(N)=O)CC2)c(C)o1	15.1	–	3.66 µM [rising, single point]
CC(=O)c1sc(NC(=O)C(C)Oc2ccc3c(C)cc(=O)oc3c2)nc1C (configuration not stated)	20.1	0.00411 µM [rising, full curve, poor fit]	3.66 µM [rising, full curve]
O=C1C2C3C=CC(C3)C2C(=O)N1c1cccc2cccnc12 (configuration not stated)	-15.4	–	–
CC1CCN(C(=O)COc2ccc(Nc3ccccc3)cc2)CC1	-23.1	–	2.59 µM [falling, single point]
Cc1ccc(-c2nc3ccccc3[nH]2)cc1N	32.9	7.31 µM [rising, partial curve, poor fit]	6.51 µM [rising, single point]
C=CCN1C(=O)c2ccccc2Sc2ccc(C(=O)N3CCN(C)CC3)cc21	22.7	–	–
O=C(Nc1ccc(F)cc1)c1cccc(NC(=O)C2C3CC4OC(=O)C2C4C3)c1 (configuration not stated)	4.2	–	4.11 µM [rising, partial curve, poor fit]

SMILES	cell number change [%]	AC50 [1]	AC50 [2]
CSc1ccc(-c2nc(CSCC(=O)NCCCN3CCCC3=O)c(C)o2)cc1	–	–	2.59 µM [falling, partial curve]
Cc1ccccc1OCC(=O)OC(C)C(=O)NC1CCCC1 (configuration not stated)	-5.35	–	–
NS(=O)(=O)c1cccc(NC(=O)CCCNC(=O)c2ccc(Cl)cc2)c1	25.8	–	20.6 µM [rising, partial curve]
C[C@@H](NC(=O)[C@@H]1Cc2ccccc2CN1)C(=O)Nc1ccc2c(c1)OCO2	-12.3	–	3.66 µM [rising, single point]
CCOC(=O)c1c(OCCO)noc1N	-28.3	–	20.6 µM [falling, single point]
CC(C)(C)c1nnc2sc(SCC(=O)c3ccc4c(c3)OCCO4)nn2c1=O	-41.4	11.6 µM [falling, partial curve]	29.1 µM [falling, single point]
COc1cc(/C=C/C(=O)O)cc(S(=O)(=O)NCCCO)c1OC	1.9	–	0.146 µM [falling, full curve, poor fit]
Cc1cc(C)n2nc(SCn3nnc4ccccc4c3=O)nc2n1	27.7	–	5.17 µM [rising, full curve]
C=CCOc1ccc(CNn2nnnc2N)cc1	-20.8	–	–
CC(=O)c1cccc(NC(=O)COC(=O)Cc2ccc(Cl)cc2)c1	-0.803	–	–
CNC(=S)Nc1ccc([N+](=O)[O-])c(C)c1	42.5	2.31 µM [rising, full curve]	29.1 µM [rising, single point]
O=C1CC(N2CCN(Cc3ccccc3)CC2)C(=O)N1 (configuration not stated)	-14	–	0.731 µM [falling, full curve]
O=C(CNC(=O)c1ccc(S(=O)(=O)N2CCCC2)cc1)N/N=C/c1ccc(Cl)cc1	-100	20.6 µM [falling, single point]	–
COc1ccc(C(=O)NNC(=S)NC(=O)c2ccccc2)cc1	-44.8	3.66 µM [falling, partial curve]	0.411 µM [rising, single point]
COCCn1c(SCC(=O)Nc2nnc(C)s2)nnc1-c1ccncc1	-24.9	0.103 µM [falling, full curve, poor fit]	3.26 µM [falling, full curve]
COc1cccc(OCc2cc(C(=O)NCCN3CCCCC3CO)no2)c1 (configuration not stated)	23.5	2.59 µM [rising, full curve, poor fit]	–
O=C(Cc1c(F)cccc1Cl)Nc1cccc(S(=O)(=O)NC2=NCCCCC2)c1	13.6	–	29.1 µM [falling, single point]
CCOC(=O)c1cc(CC)sc1NC(=O)COC(=O)c1cc[n+]([O-])cc1	68	11.6 µM [rising, partial curve]	–
O=S(=O)(c1ccc(SCc2ccc(Br)cc2)nc1)N1CCOCC1	-29.5	0.58 µM [falling, full curve]	0.517 µM [falling, full curve]
CC(=O)CSc1ncnc2sc3c(c12)CCC3	4.74	–	13 µM [falling, partial curve]

Pulled by structure from the list above, 2 records:
SMILES	cell number change [%]	AC50 [1]	AC50 [2]
CC1CCN(C(=O)COc2ccc(Nc3ccccc3)cc2)CC1	-23.1	–	2.59 µM [falling, single point]
O=C(Nc1cccc(F)c1)NC1(C(=O)N2CCC(O)CC2)CCCCC1	4.84	–	29.1 µM [rising, single point]
